Assay results published in PubChem BioAssay AID540275 (National Center for Advancing Translational Sciences (NCATS), 2011).
Among all 320,000 compounds or so, about 620 (0.19%) were called active. This list was built around the results that the source calls inconclusive (neither active nor inactive); the mix of calls is not that of the screen. Cut-off read from the data, not from the text of the source: active = activation above about 80%; inconclusive = between about 30% and that limit; inactive = weaker than that.

The chains behind the UniProt entries cited, without tags or fusion partners.
UniProt Q8NER1, whole entry, looked up: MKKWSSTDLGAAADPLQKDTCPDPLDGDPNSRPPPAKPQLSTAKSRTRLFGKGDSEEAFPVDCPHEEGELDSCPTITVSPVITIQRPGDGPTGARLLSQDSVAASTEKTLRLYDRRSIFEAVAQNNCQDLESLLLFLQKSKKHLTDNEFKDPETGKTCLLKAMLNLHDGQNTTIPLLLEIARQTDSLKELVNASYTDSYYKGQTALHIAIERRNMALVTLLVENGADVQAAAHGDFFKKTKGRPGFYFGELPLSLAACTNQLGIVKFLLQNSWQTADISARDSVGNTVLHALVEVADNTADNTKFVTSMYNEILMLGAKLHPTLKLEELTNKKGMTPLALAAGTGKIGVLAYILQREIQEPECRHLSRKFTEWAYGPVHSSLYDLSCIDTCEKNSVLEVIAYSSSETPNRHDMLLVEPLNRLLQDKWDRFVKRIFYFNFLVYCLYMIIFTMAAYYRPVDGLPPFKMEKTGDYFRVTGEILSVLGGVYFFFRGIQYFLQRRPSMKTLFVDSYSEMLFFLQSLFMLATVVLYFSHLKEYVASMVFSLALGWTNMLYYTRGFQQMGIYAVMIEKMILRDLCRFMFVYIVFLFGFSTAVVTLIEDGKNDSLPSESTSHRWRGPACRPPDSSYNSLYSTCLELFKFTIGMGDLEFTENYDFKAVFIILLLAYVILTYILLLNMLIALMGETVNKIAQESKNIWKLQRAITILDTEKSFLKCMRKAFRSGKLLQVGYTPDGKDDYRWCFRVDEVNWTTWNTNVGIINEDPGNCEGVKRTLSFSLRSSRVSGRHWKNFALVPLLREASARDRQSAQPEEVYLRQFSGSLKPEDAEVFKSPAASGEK

Biological target: Transient receptor potential cation channel subfamily V member 1 (Homo sapiens) (UniProt Q8NER1)
Assay: HTS Assay for Compounds that Act as Agonists of the Vanilloid Receptor 1; note: 0% is about no effect
Conditions: TRPV1-expressing cells, Fluo-8 calcium influx, agonist mode; at 8.33 µM, stronger effect = higher value
Outline: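 Cells expressing TRPV1 were dye-loaded with Fluo-8 and read kinetically: 10 s baseline, 3 min after compound (agonist portion), then 2 min after EC20 capsaicin (allosteric enhancer portion). Calcium-bound dye fluorescence at 480/520 nm.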

Compound | activation
COc1ccc(C(=O)Nc2cc(OC)c(Cl)cc2Cl)cc1 | inconclusive: 35.7%
Cn1c(-c2c(N)n(CCc3ccccc3)c3nc4ccccc4nc23)nc2ccccc21 | inactive: 12.6%
COc1ccc(Br)cc1C(=O)Nc1ccccc1N1CCN(C(=O)c2ccccc2)CC1 | inactive: 1.41%
CCC(=O)N1CCCc2cc(S(=O)(=O)N3CCCc4ccccc43)ccc21 | inconclusive: 30.7%
Cc1ccc(CNC(=O)COc2ccc3c(c2)CCC3)cc1 | inconclusive: 38.1%
CCOC(=O)c1cnc2c(OC)cccc2c1N1CCN(c2ccccn2)CC1 | inconclusive: 31.7%
N#Cc1ccc(COn2nnc3ccccc32)cc1 | inconclusive: 31%
C=CCn1cc(/C=C2\SC(N3CCOCC3)=NC2=O)c2ccccc21 | inconclusive: 65%
O=C(OCCNC(=O)c1ccc2ccccc2n1)c1ccc(F)cc1 | inconclusive: 31%
CC(C)OCCCN1CN(S(=O)(=O)c2ccccc2)c2nc3ccccc3nc21 | inconclusive: 33.7%
COc1ccc(C(=O)COc2cccc(NC(=O)c3ccco3)c2)cc1 | inconclusive: 43.4%
O=C(Nc1ccc(N2CCOCC2)nc1)c1ccc(Cl)cc1 | inconclusive: 33.8%
COc1ccc(S(=O)(=O)/C(C#N)=C/Nc2cccc(F)c2)cc1 | inconclusive: 34.4%
Cc1ccc(C)c(-n2cc(CN3CCCN(C=O)CC3)c(-c3ccccc3)n2)c1 | inconclusive: 30.9%
O=C1CC(c2ccco2)CC2=C1C=Nc1ccccc1N2 (stereo not drawn) | inconclusive: 40.2%
COc1ccc(NC(=O)c2ccc(-c3ccccc3Cl)o2)cc1 | inconclusive: 62.3%
O=C(/C=C/c1ccco1)Nc1cccc(S(=O)(=O)N2CCOCC2)c1 | inactive: 29.7%
COc1ccc(-c2noc(N3CCC(C(=O)Nc4ccccc4F)CC3)n2)cc1 | inconclusive: 35.4%
CCOc1cccc(-c2nnc3sc(COc4ccccc4)nn23)c1 | inconclusive: 39.8%
CC(C)=CCN1CCN(Cc2cnc(C)s2)CC1CCO (stereo not drawn) | inconclusive: 50.5%
O=C(Nc1ccc(Br)cc1)c1ccc2ncsc2c1 | inconclusive: 68.9%
COc1cc(NC(=O)c2ccco2)c(OC)cc1NC(=O)Nc1cccc(Cl)c1 | inconclusive: 57.2%

Compound | activation
O=C(NN1CCN(Cc2ccccc2Cl)CC1)c1ccc(Cl)cc1 | inconclusive: 35.3%
CC(C)Oc1ccc(CNC(=S)Nc2ccccc2)cc1Cl | inconclusive: 43.4%
CCCOc1ccc(-c2c(C(=O)N/N=C/c3ccco3)nnn2-c2nonc2N)cc1 | inconclusive: 41%
C#CCOCCOCCOCCNc1nc(N2CCN(C(=O)[C@H]([C@@H](C)CC)n3cc([C@@H](N)CO)nn3)CC2)nc(N2CCN(C(=O)[C@H]([C@@H](C)CC)n3cc([C@@H](N)CC(C)C)nn3)CC2)n1 | inactive: 1.19%
O=CNCCCc1nc2ccccc2n1Cc1cccc2ccccc12 | inconclusive: 40.4%
C/C(N)=C(/C#N)C(=O)CSc1nn(-c2ccc(Cl)cc2)c(=S)s1 | inconclusive: 45.5%
Cc1ccc(OCCCCn2c(CO)nc3ccccc32)cc1 | inconclusive: 48.4%
O=C1N/C(=N/N=C/c2ccc(O)cc2)SC1Cc1ccccc1 (stereo not drawn) | inactive: -5.37%
CC(C)c1ccc(NC(=O)c2cc(Br)ccc2Br)cc1 | inactive: 25.2%
CCCOc1ccc(-c2nnn(CC(=O)N3CCCC(C)C3)n2)cc1 (stereo not drawn) | inactive: 25.3%
N#C/C(=C\c1cccs1)c1nc2ccccc2[nH]1 | inconclusive: 42.3%
O=C1C(Cl)=C(Nc2ccccc2)C(=O)c2ccccc21 | inactive: 5.46%
OC(COc1ccccc1)CSc1ncn[nH]1 (stereo not drawn) | inactive: 3.86%
CCCc1nc(SCC(=O)c2ccc(F)cc2)c2ccccc2n1 | inconclusive: 56.1%
O=C(Nc1ccncc1)Nc1cccc(Cl)c1Cl | inconclusive: 46.6%
COc1ccc(NC2CCCN(C(=O)c3ccc(OC)o3)C2)cc1 (stereo not drawn) | inconclusive: 44.2%
CCn1c2ccccc2c2cc(NC(=O)c3ccco3)ccc21 | inconclusive: 62.8%
CCN1C(=O)/C(=C\N2CCCCCC2)SC1=S | inconclusive: 33%
COc1ccccc1CCNC(=O)C(=O)NCC1OCCCN1S(=O)(=O)c1ccc(F)cc1C (stereo not drawn) | inactive: 2.3%
Cc1ccc2nc(-c3ccsc3)c(NC3CCCC3)n2c1 | inconclusive: 34.7%
Cc1cc(C)c(C)c(S(=O)(=O)N2CCN(c3ncnc4ccccc34)CC2)c1C | inconclusive: 40.2%
O=c1[nH]c2ccccc2c(O)c1O | inactive: 2.59%

Compound | activation
CCCCN1C[C@H](Cc2ccccc2)[C@@H](CC(=O)Nc2ccccc2)C1=O | inconclusive: 43.2%
CC(C)OC(=O)CSc1nnc(-c2cccnc2)n1N | inactive: 2.02%
C#CCOCCOCCOCCNc1nc(N2CCN(C(=O)CCCCCCCCCCNC(=O)[C@H]([C@@H](C)CC)n3cc(CCCCN=C(N)N)nn3)CC2)nc(N2CCN(C(=O)CCCCCCCCCCNC(=O)[C@H](CCCCN)n3cc(C)nn3)CC2)n1 | inactive: -4.09%
COc1ccccc1CNC(=O)CN1C(=O)NC(C)(c2ccc(C(C)(C)C)cc2)C1=O (stereo not drawn) | inconclusive: 38%
O=C(C1CC1)N1CCCC(c2ccc(Cl)cc2)=N1 | inconclusive: 31.8%
O=C(CCc1ccccc1)Nc1ccnn1C1CCN(C/C=C/c2ccccc2)CC1 | inactive: -0.964%
CN1CCC(=O)N([C@H](CSc2ccccc2)Cc2ccccc2)CC1 | inactive: 2.14%
COc1cc2cc(CN(Cc3cccnc3)C(=O)NCc3ccccc3)c(=O)[nH]c2cc1OC | inconclusive: 42.7%
O=C(N/N=C1\CC(c2ccccc2)Oc2ccccc21)c1cccnc1 (stereo not drawn) | inconclusive: 34.5%
CC(=O)Nc1cccc(Oc2ccc([N+](=O)[O-])cc2Cl)c1 | inconclusive: 36.8%
O=C(c1ccc([N+](=O)[O-])s1)N1CCN(c2cccc(Cl)c2)CC1 | inconclusive: 51%
O=C(OCc1nc2ccccc2[nH]1)C12CC3CC(CC(C3)C1)C2 | inconclusive: 55.2%
CC(NC(=O)Nc1ccc(F)cc1F)c1ccncc1 (stereo not drawn) | inactive: 2.28%
CN(C)S(=O)(=O)Oc1ccc(C(=O)Nc2cccc(Cl)c2)cc1 | inconclusive: 42.1%
COc1cc(NC(=O)c2c(F)cccc2F)nc(OC)n1 | inactive: -1.46%
CCCC1O[C@@H]2CC3C4CCC5=CC(=O)C=C[C@]5(C)C4C(OC(C)=O)C[C@]3(C)[C@]2(C(=O)COC(C)=O)O1 (stereo partly drawn) | inactive: 8.13%
Cc1ccc(C(=O)c2c3ccc([N+](=O)[O-])cc3[n+]([O-])n2CCC(N)=O)cc1 | inactive: 5.34%
Fc1ccc(N2CCN(C(=S)NCc3ccco3)CC2)cc1 | inconclusive: 70.6%
COc1ccc(NC(=O)CSc2nc3ccccc3nc2N2CCCCC2)cc1 | inconclusive: 51.8%
CC(=O)Nc1ccc(NC(=O)/C=C/c2ccc3c(c2)OCO3)cc1 | inconclusive: 79%
Cc1ccccc1N1CCN(S(=O)(=O)c2ccc3oc(=O)ccc3c2)CC1 | inconclusive: 41.4%
Cc1ccc(-c2ccc(/C=C3\SC(N4CCOCC4)=NC3=O)o2)cc1 | inconclusive: 59.4%

In another format: results already given
Compound,activation
O=C(Nc1ccncc1)Nc1cccc(Cl)c1Cl,inconclusive: 46.6%
COc1ccc(NC2CCCN(C(=O)c3ccc(OC)o3)C2)cc1 (stereo not drawn),inconclusive: 44.2%
CCn1c2ccccc2c2cc(NC(=O)c3ccco3)ccc21,inconclusive: 62.8%
COc1ccccc1CCNC(=O)C(=O)NCC1OCCCN1S(=O)(=O)c1ccc(F)cc1C (stereo not drawn),inactive: 2.3%
Cc1ccc2nc(-c3ccsc3)c(NC3CCCC3)n2c1,inconclusive: 34.7%
O=c1[nH]c2ccccc2c(O)c1O,inactive: 2.59%
CCCCN1C[C@H](Cc2ccccc2)[C@@H](CC(=O)Nc2ccccc2)C1=O,inconclusive: 43.2%
CC(C)OC(=O)CSc1nnc(-c2cccnc2)n1N,inactive: 2.02%
C#CCOCCOCCOCCNc1nc(N2CCN(C(=O)CCCCCCCCCCNC(=O)[C@H]([C@@H](C)CC)n3cc(CCCCN=C(N)N)nn3)CC2)nc(N2CCN(C(=O)CCCCCCCCCCNC(=O)[C@H](CCCCN)n3cc(C)nn3)CC2)n1,inactive: -4.09%
COc1ccccc1CNC(=O)CN1C(=O)NC(C)(c2ccc(C(C)(C)C)cc2)C1=O (stereo not drawn),inconclusive: 38%
O=C(C1CC1)N1CCCC(c2ccc(Cl)cc2)=N1,inconclusive: 31.8%
O=C(CCc1ccccc1)Nc1ccnn1C1CCN(C/C=C/c2ccccc2)CC1,inactive: -0.964%
COc1cc2cc(CN(Cc3cccnc3)C(=O)NCc3ccccc3)c(=O)[nH]c2cc1OC,inconclusive: 42.7%
O=C(N/N=C1\CC(c2ccccc2)Oc2ccccc21)c1cccnc1 (stereo not drawn),inconclusive: 34.5%
CC(=O)Nc1cccc(Oc2ccc([N+](=O)[O-])cc2Cl)c1,inconclusive: 36.8%
O=C(c1ccc([N+](=O)[O-])s1)N1CCN(c2cccc(Cl)c2)CC1,inconclusive: 51%
O=C(OCc1nc2ccccc2[nH]1)C12CC3CC(CC(C3)C1)C2,inconclusive: 55.2%
CC(NC(=O)Nc1ccc(F)cc1F)c1ccncc1 (stereo not drawn),inactive: 2.28%
CN(C)S(=O)(=O)Oc1ccc(C(=O)Nc2cccc(Cl)c2)cc1,inconclusive: 42.1%
COc1cc(NC(=O)c2c(F)cccc2F)nc(OC)n1,inactive: -1.46%
CCCC1O[C@@H]2CC3C4CCC5=CC(=O)C=C[C@]5(C)C4C(OC(C)=O)C[C@]3(C)[C@]2(C(=O)COC(C)=O)O1 (stereo partly drawn),inactive: 8.13%
Cc1ccc(C(=O)c2c3ccc([N+](=O)[O-])cc3[n+]([O-])n2CCC(N)=O)cc1,inactive: 5.34%
Fc1ccc(N2CCN(C(=S)NCc3ccco3)CC2)cc1,inconclusive: 70.6%
COc1ccc(NC(=O)CSc2nc3ccccc3nc2N2CCCCC2)cc1,inconclusive: 51.8%
CC(=O)Nc1ccc(NC(=O)/C=C/c2ccc3c(c2)OCO3)cc1,inconclusive: 79%
Cc1ccccc1N1CCN(S(=O)(=O)c2ccc3oc(=O)ccc3c2)CC1,inconclusive: 41.4%
Cc1ccc(-c2ccc(/C=C3\SC(N4CCOCC4)=NC3=O)o2)cc1,inconclusive: 59.4%

The list goes on.

Compound | activation
O=C(Nc1cccc(O)c1)c1ccc(C(F)(F)F)cc1 | inconclusive: 57.3%
Cc1ccccc1-n1c(SCC(=O)NC(N)=O)nc2sc(-c3ccccc3)cc2c1=O | inactive: 4.34%
Cc1cc(C(=O)NNS(=O)(=O)c2ccc(C(C)(C)C)cc2)nn1C(C)(C)C | inconclusive: 43.1%
CCn1nnc(NC(=O)c2ccc(C(C)(C)C)cc2)n1 | inactive: -0.962%
CCOc1ccc(C(=O)NN2CCOCC2)cc1 | inactive: -1.87%
CCOC(=O)C1(Cc2cccc(Cl)c2)CCCN(C(=O)c2cc(C)on2)C1 (stereo not drawn) | inconclusive: 46.2%
Cc1cccn2c(=O)c3cc(C(=O)NC4CCCCC4)c(=N)n(Cc4ccc(F)cc4)c3nc12 | inconclusive: 33.6%
Cc1cccc(NC(=O)c2ccc3c(c2)OCCO3)c1C | inconclusive: 42.5%
O=C(Nc1ccon1)c1ccc2c(c1)OCO2 | inactive: -3.75%
Cc1ccc(N2C(=O)c3cccc4c(N)ccc(c34)C2=O)c2cccnc12 | active: 94.1%
COc1cccc(-c2nc(CS(=O)(=O)CC(=O)Nc3ccccc3Cl)c(C)o2)c1 | inconclusive: 48.8%
CC1CCN(CCNC(=S)Nc2ccc(Cl)cc2)CC1 | inactive: -1.59%
CCOC(=O)C1=CC[C@@H](c2cccc(C)c2)N(S(=O)(=O)c2ccc(C)cc2)[C@H]1C(=O)OCC | inconclusive: 34.3%
COc1ccc(-c2nn(-c3ccccc3F)cc2CNCCn2nc(C)cc2C)cc1 | inconclusive: 57%
CC(C)CC(C)NC(=O)c1ccc(C(F)(F)F)cc1 (stereo not drawn) | inconclusive: 53.2%
O=c1c2ccccc2cnn1CCOc1cccc(Br)c1 | inconclusive: 48.1%
O=[N+]([O-])c1c(Nc2ccccn2)cc(Cl)c2nonc12 | inactive: -1.22%
CCCc1nc2ccccc2c(C(=O)OCC(=O)c2ccc3c(c2)NC(=O)CO3)c1CC | inconclusive: 42.8%
COc1ccc(CN2CCc3ccc(NC(=O)c4ccncc4)cc3C2)c(F)c1 | inconclusive: 41.4%
COc1ccc(/C=C2/S/C(=N/N=C3\CC4CCC3(C)C4(C)C)NC2=O)cc1 (stereo not drawn) | inconclusive: 53.9%
Cc1ccc(CNC(=O)CO/N=C/c2ccc(C(C)(C)C)cc2)cc1 | inconclusive: 61.6%
O=[N+]([O-])c1ccc(OCCCCN2CCCCC2)cc1 | inactive: -3.82%
